No constants are given. Whether binding was seen depends on the method and setting. For some of these results: Binding can be weak; no strength is given.
Tests used:
[1] = biological target: ATP-binding cassette transporter A1 (human ABCA1), expressed on CHO cells (human) (UniProt O95477); assay: flow cytometry on cells; ABCA1-CHO cells; no compound or IMB2026791 for 1 h at 37 °C, then 30 μg/mL apoA-I with the compound for 1 h at 4 °C; washed, mildly trypsinised, fixed; rabbit anti-apoA-I and anti-rabbit IgG-PE; 10,000 cells per sample; only the binder purified
[2] = biological target: ATP-binding cassette transporter A1 (human ABCA1), expressed on CHO cells (human) (UniProt O95477); assay: binding to cells, cell-bound apoA-I detected by western blot of the lysate; as a3, but ABCA1-CHO cells treated with 100 μM glibenclamide for 2 h at 37 °C, then 20 μg/mL apoA-I with glibenclamide for 2 h at 4 °C; only the binder purified
[3] = biological target: ATP-binding cassette transporter A1 (human ABCA1), expressed on CHO cells (human) (UniProt O95477); assay: ELISA; cell-based-ELISA-like assay, 96-well; stable ABCA1-CHO cells, 40,000 cells/well; compounds (DMSO, glibenclamide, IMB2026791) 1 h at 37 °C, then 10 μg/mL apoA-I with compounds 1 h at 4 °C in DMEM with 0.2% BSA; washed, fixed with 4% paraformaldehyde; anti-apoA-I antibody, HRP second antibody, absorbance at 450 nm; signal without apoA-I subtracted; only the binder purified
[4] = biological target: ATP-binding cassette transporter A1 (human ABCA1), expressed on CHO cells (human) (UniProt O95477); assay: binding to cells, cell-bound apoA-I detected by western blot of the lysate; ABCA1-CHO cells; no compound or 50 μM IMB2026791 for 2 h at 37 °C, then 20 μg/mL apoA-I with the compound for 2 h at 4 °C; washed twice with ice-cold PBS, lysed, 30 μg protein per lane, blot with anti-apoA-I, normalised to β-actin; only the binder purified

Sequences of proteins named here, by UniProt entry; tags and fusion partners are left off. A change or cut given only in a name is not applied to a line headed by its entry.
UniProt O95477: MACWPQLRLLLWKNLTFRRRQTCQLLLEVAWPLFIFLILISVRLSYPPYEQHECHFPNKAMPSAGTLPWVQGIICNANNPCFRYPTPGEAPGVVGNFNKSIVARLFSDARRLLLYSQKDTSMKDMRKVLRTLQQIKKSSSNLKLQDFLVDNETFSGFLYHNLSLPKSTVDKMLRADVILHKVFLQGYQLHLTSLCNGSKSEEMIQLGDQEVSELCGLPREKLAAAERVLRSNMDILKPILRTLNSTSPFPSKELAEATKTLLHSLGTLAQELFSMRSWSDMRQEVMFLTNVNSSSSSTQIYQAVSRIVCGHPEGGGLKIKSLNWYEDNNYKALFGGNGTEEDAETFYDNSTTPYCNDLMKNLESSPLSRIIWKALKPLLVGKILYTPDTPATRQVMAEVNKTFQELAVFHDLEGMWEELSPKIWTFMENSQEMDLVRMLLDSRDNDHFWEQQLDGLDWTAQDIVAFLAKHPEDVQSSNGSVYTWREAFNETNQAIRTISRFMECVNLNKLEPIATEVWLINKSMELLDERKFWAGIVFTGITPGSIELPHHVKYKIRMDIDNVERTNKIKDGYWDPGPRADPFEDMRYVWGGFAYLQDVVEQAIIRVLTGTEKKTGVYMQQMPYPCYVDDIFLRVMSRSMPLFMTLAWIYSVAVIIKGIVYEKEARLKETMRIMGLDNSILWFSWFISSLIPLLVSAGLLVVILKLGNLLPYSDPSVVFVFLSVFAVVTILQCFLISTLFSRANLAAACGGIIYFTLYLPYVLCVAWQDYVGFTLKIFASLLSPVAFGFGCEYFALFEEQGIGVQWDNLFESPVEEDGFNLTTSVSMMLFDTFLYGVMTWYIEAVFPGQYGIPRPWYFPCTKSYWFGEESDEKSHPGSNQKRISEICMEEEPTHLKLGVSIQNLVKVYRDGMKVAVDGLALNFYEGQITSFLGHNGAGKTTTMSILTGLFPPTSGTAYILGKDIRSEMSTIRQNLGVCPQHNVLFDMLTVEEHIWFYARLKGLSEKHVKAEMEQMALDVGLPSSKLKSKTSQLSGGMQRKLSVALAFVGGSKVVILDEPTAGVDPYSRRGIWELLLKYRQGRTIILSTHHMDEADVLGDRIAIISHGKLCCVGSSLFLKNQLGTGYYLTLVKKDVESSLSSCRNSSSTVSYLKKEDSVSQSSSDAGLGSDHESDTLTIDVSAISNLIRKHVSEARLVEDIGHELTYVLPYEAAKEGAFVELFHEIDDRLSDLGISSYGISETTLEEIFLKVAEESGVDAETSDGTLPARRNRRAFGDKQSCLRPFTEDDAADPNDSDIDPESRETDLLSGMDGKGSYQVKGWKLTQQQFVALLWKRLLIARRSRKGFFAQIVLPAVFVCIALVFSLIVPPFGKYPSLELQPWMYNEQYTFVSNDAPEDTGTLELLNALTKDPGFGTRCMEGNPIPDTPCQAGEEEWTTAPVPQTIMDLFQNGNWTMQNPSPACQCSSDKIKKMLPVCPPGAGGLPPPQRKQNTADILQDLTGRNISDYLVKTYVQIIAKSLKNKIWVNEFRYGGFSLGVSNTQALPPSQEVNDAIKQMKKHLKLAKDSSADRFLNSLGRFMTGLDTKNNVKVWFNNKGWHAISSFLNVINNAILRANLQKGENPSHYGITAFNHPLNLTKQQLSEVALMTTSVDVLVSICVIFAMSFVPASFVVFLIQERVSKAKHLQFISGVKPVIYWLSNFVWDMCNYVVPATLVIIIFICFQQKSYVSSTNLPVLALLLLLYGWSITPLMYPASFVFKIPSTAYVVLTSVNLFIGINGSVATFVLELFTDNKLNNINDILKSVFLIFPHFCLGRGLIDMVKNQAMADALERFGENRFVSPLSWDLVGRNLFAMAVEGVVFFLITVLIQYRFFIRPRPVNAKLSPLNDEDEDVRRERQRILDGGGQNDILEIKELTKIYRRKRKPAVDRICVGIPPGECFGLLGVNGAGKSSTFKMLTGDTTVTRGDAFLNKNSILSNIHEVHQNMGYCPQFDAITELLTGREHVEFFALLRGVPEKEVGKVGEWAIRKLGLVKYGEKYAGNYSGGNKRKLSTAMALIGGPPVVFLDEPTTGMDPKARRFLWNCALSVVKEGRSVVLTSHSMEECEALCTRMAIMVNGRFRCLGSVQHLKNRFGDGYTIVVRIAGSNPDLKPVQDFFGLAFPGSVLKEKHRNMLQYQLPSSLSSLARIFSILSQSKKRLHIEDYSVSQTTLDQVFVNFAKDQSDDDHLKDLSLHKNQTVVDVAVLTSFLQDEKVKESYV
UniProt P02647: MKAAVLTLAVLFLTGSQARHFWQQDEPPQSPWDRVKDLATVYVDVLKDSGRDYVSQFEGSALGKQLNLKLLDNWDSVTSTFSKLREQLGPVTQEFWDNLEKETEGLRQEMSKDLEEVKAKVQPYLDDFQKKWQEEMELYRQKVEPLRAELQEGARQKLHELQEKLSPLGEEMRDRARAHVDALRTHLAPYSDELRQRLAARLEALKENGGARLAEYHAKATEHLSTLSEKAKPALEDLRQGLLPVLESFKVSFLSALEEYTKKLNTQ

Question: What does the source list for “Human apolipoprotein A-I (from UniProt P02647) (ligand)”?
Answer: binding [1]: binds; binding [2]: no binding (only with 100 μM glibenclamide); binding [3]: binds; binding [4]: binds

Reference: article PMC6268880, “IMB2026791, a Xanthone, Stimulates Cholesterol Efflux by Increasing the Binding of Apolipoprotein A-I to ATP-Binding Cassette Transporter A1” (Molecules, 2012)
